From patent publication US20250174299 (published 2025)
End groups of sequences in plain letters are not given here.

Assay: peptide made by a vendor
Conditions: whole synthesis

## CCTSPGGDQFCRSRW TQWNLVIWCQCCVR
  purity (crude or final not stated): 26%
